Source: PubChem BioAssay AID652243 (Drosophila RNAi Screening Center, 2013)

Assay: 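Fly regulators of androgen-dependent reporter output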 (primary screen)
Cell system: Drosophila S2R+ cells
Knock-down reagent: long dsRNA against Drosophila genes
Time to read-out: 72 h (48 h, then 24 h hormone)
Challenge: synthetic androgen R1881 at 10 nM for 24 h
Detection: 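Per-well raw luminescence of the androgen-driven firefly reporter and of the Renilla control, two replicates each, without normalisation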
Reading the numbers: firefly reporter light: higher = more light from androgen-responsive reporter; Renilla control light: higher = more constitutive control signal (cell number, transfection)
Call rule: 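Hit when the log firefly-to-Renilla ratio dropped or increased by a fixed fold versus the mean of GFP or LacZ controls across duplicate plates; lowering cut given as 1.5 and as 3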
Calls: active = hit: reporter lowered or raised; inactive = no hit
In all, the deposit lists about 24,000 reagents; below is a random part of those that have a named target and a result. In the full data, 246 (1%) were called active. 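Plates not normalised; calls are printed but the firefly/Renilla ratio behind them is not deposited; fold cut for lowering reported inconsistently.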 Raw values vary from plate to plate and are shown uncorrected. A plus sign joins genes that one reagent is predicted to hit. Not stated in the record: the amount of reagent.

target	DRSC id	firefly reporter light, replicate 1	firefly reporter light, replicate 2	Renilla control light, replicate 1	Renilla control light, replicate 2	outcome
CG11200	DRSC06060	1.06e6	6.39e5	1.75e6	8.37e5	inactive
CG11200	DRSC27196	2.80e5	3.29e5	5.04e5	5.10e5	inactive
HPS1	DRSC06195	9.81e5	1.46e6	1.92e6	2.04e6	inactive
Ir7a	DRSC17866	1.22e5	2.06e5	1.49e6	2.38e6	inactive
pcx	DRSC18186	2.69e5	3.89e5	3.88e6	3.06e6	inactive
pcx	DRSC18187	3.86e5	3.86e5	3.63e6	3.10e6	inactive
pcx	DRSC18188	3.58e5	4.86e5	2.86e6	3.55e6	inactive
pcx	DRSC18189	3.87e5	4.03e5	3.77e6	3.28e6	inactive
pcx	DRSC18190	3.76e5	3.18e5	2.73e6	2.68e6	inactive
pcx	DRSC18816	1.07e5	94506	1.10e6	1.13e6	inactive
ouib	DRSC14376	1.50e5	1.19e5	1.94e6	2.07e6	inactive
Den1	DRSC07195	3.50e5	2.32e5	1.86e6	1.32e6	inactive
CG13531	DRSC04173	3.28e5	3.37e5	1.64e6	1.46e6	inactive
lectin-28C	DRSC03010	1.71e5	2.02e5	1.85e6	1.95e6	inactive
lectin-28C	DRSC26982	5.77e5	5.55e5	6.79e5	6.24e5	inactive
CheA86a	DRSC38820	6.60e5	6.16e5	1.84e6	1.22e6	inactive
CG10283	DRSC02034	1.03e6	1.25e6	2.28e6	2.06e6	inactive
CG10283	DRSC25302	7.87e5	8.78e5	8.81e5	1.05e6	inactive
GABA-B-R2	DRSC14134	4.69e5	5.20e5	1.46e6	1.47e6	inactive
GABA-B-R2	DRSC28127	3.85e5	3.55e5	7.60e5	7.72e5	inactive
Zasp66	DRSC08932	1.74e5	63463	1.60e5	73227	inactive
Zasp66	DRSC10631	1.37e6	1.05e6	2.08e6	2.20e6	inactive
Zasp66	DRSC10632	3.22e5	2.94e5	2.40e6	2.73e6	inactive
CG42260 + asRNA:CR30267	DRSC29385	2.90e5	4.16e5	7.76e5	7.76e5	inactive

Next part; the last 7 above are carried over.
target	DRSC id	firefly reporter light, replicate 1	firefly reporter light, replicate 2	Renilla control light, replicate 1	Renilla control light, replicate 2	outcome
CG10283	DRSC25302	7.87e5	8.78e5	8.81e5	1.05e6	inactive
GABA-B-R2	DRSC14134	4.69e5	5.20e5	1.46e6	1.47e6	inactive
GABA-B-R2	DRSC28127	3.85e5	3.55e5	7.60e5	7.72e5	inactive
Zasp66	DRSC08932	1.74e5	63463	1.60e5	73227	inactive
Zasp66	DRSC10631	1.37e6	1.05e6	2.08e6	2.20e6	inactive
Zasp66	DRSC10632	3.22e5	2.94e5	2.40e6	2.73e6	inactive
CG42260 + asRNA:CR30267	DRSC29385	2.90e5	4.16e5	7.76e5	7.76e5	inactive
CG10749	DRSC09798	2.78e5	1.70e5	1.52e6	1.53e6	inactive
CG10749	DRSC27656	5.14e5	4.85e5	8.97e5	9.01e5	inactive
CG42633	DRSC16061	1.50e5	1.33e5	2.87e6	1.58e6	inactive
side-V	DRSC04189	4.51e5	3.63e5	1.77e6	3.15e6	inactive
CG32988	DRSC02692	2.61e5	1.62e5	1.57e6	1.23e6	inactive
CG5910	DRSC11786	2.73e5	1.69e5	2.80e6	1.44e6	inactive
CR17567 (retired record)	DRSC02627	1.99e5	2.20e5	2.39e6	2.56e6	inactive
CR17567 (retired record)	DRSC22537	1.08e6	8.64e5	3.59e5	2.75e5	inactive
CR17567 (retired record)	DRSC24938	5.81e5	5.99e5	7.46e5	7.94e5	inactive
Sfmbt	DRSC02552	1.16e6	1.18e6	2.02e6	1.80e6	inactive
Sfmbt	DRSC24312	5.75e5	6.68e5	8.84e5	8.22e5	inactive
His4:CG33883 + His4:CG33889 + His4:CG33899 + 20 more	DRSC21268	4.00e5	4.63e5	1.16e5	1.10e5	inactive
His4:CG33883 + His4:CG33889 + His4:CG33899 + 20 more	DRSC30020	4.07e5	4.29e5	1.10e5	1.25e5	inactive
CG32457	DRSC21722	6.51e5	7.17e5	1.03e6	1.63e6	inactive
DCX-EMAP	DRSC10012	2.27e5	1.27e5	1.82e6	1.04e6	inactive
DCX-EMAP	DRSC10013	1.02e5	1.10e5	5.19e5	4.00e5	inactive
DCX-EMAP	DRSC23492	1.71e6	1.26e6	1.20e6	1.10e6	inactive
Polr1E	DRSC14506	1.70e5	1.38e5	2.33e6	1.81e6	inactive
Polr1E	DRSC15358	79640	78240	7.21e5	8.21e5	inactive
CG3502 + CG9863	DRSC04578	2.66e5	2.01e5	1.42e6	1.61e6	inactive
CG9101	DRSC20152	2.12e5	2.27e5	1.77e6	1.54e6	inactive
CG9101	DRSC27575	4.68e5	3.92e5	8.57e5	5.82e5	inactive
Ilp2	DRSC10968	1.10e6	9.68e5	9.22e5	1.12e6	inactive
Ilp2	DRSC29688	6.80e5	6.24e5	1.80e6	1.73e6	inactive
CR40100	DRSC38722	6.85e5	4.46e5	1.44e6	1.96e6	inactive
Spn88Ea	DRSC17061	67085	1.33e5	2.36e6	2.65e6	inactive
Spn88Ea	DRSC27907	5.48e5	3.17e5	1.71e6	1.32e6	inactive
CG34217	DRSC38886	7.95e5	8.01e5	1.92e6	1.64e6	inactive
CG32694	DRSC17844	2.46e5	3.40e5	2.40e6	3.02e6	inactive
CG32694	DRSC17855	4.53e5	5.83e5	2.70e6	3.43e6	inactive
CG32694	DRSC22670	3.82e5	3.55e5	6.91e5	5.57e5	inactive
CG32694	DRSC25730	1.16e6	1.14e6	1.59e6	1.85e6	inactive
CG32694	DRSC25731	1.15e6	1.42e6	1.31e6	1.59e6	inactive
CG14005	DRSC02337	6.97e5	7.36e5	1.80e6	1.56e6	inactive
